The numbers were not newly measured in paper PMC9400510, “Interaction between glyphosate pesticide and amphiphilic peptides for colorimetric analysis” (Nanoscale Advances, 2022), which cites them from elsewhere.

The conditions of the series: PNG detection, UV-vis methods.

In the case of `Cc1cc(-c2cc(C)c(N)c(C)c2)cc(C)c1N` [3,3′,5,5′-Tetramethylbenzidine], the LOD was 1 mM and the Linear region is 2 to 150 mM.
